Data taken from patent US20120269817A1.
Results are given in words; binding and its absence hold for the method and conditions named.

Target: lysozyme
Assay: ELISA

Row | binding | Binder
1 | no binding | TP-3H2 Fab (Fab, V domains shown) VH: QVQLVESGGGLVQPGGSLRLSCAASGFTFNSYYMSWVRQAPGKGLEWVSNISSSGSNTNYADSVKGRFTISRDNSKNTLYLQMNSLRAEDTAVYYCARVHYGFDFWGQGTLVTVSS VL: DIELTQPPSVSVAPGQTARISCSGDKLGKYYAYWYQQKPGQAPVLVIYGDSKRPSGIPERFSGSNSGNTATLTISGTQAEDEADYYCSSAAFGSTVFGGGTKLTVLG
2 | no binding | TP-4A9 Fab (Fab, V domains shown) VH: QVQLVESGGGLVQPGGSLRLSCAASGFTFSSYGMSWVRQAPGKGLEWVSLISGVSSSTYYADSVKGRFTISRDNSKNTLYLQMNSLRAEDTAVYYCARSYLGYFDVWGQGTLVTVSS VL: DIELTQPPSVSVAPGQTARISCSGDALGKYYASWYQQKPGQAPVLVIYGDNKRPSGIPERFSGSNSGNTATLTISGTQAEDEADYYCQSYTTRSLVFGGGTKLTVLG
3 | no binding | TP-3D3 Fab (Fab, V domains shown) VH: QVQLVESGGGLVQPGGSLRLSCAASGFTFSSYASWVRQAPGKGLEWVSGISGDGSNTHYADSVKGRFTISRDNSKNTLYLQMNSLRAEDTAVYYCARYDNFYFDVWGQGTLVTVSS VL: DIELTQPPSVSVAPGQTARISCSGDSLGSKFAHWYQQKPGQAPVLVIYDDSNRPSGIPERFSGSNSGNTATLTISGTQAEDEADYYCSTYTSRSHSYVFGGGTKLTVLG
4 | no binding | TP-3C3 Fab (Fab, V domains shown) VH: QVQLQQSGPGLVKPSQTLSLTCAISGDSVSSNSAAWGWIRQSPGRGLEWLGVIYYRSKWYNDYAVSVKSRITINPDTSKNQFSLQLNSVTPEDTAVYYCARARAKKSGGFDYWGQGTLVTVSS VL: DIQMTQSPSSLSASVGDRVTITCRASQSINPYLNWYQQKPGKAPKLLIYAASNLQSGVPSRFSGSGSGTDFTLTISSLQPEDFAVYYCQQLDNRSITFGQGTKVEIKR
5 | no binding | TP-3G3 Fab (Fab, V domains shown) VH: QVQLVESGGGLVQPGGSLRLSCAASGFTFSSYSMSWVRQAPGKGLEWVSSISSSSSNTYYGDSVKGRFTISRDNSKNTLYLQMNSLRAEDTAVYYCARMHYKGMDIWGQGTLVTVSS VL: DIQMTQSPSSLSASVGDRVTITCRASQNIHSHLNWYQQKPGKAPKLLIYDASSLQSGVPSRFSGSGSGTDFTLTISSLQPEDFAVYYCQQYYDYPLTFGQGTKVEIKR
6 | no binding | TP-3F2 Fab (Fab, V domains shown) VH: QVQLVESGGGLVQPGGSLRLSCAASGFTFSSYSMHWVRQAPGKGLEWVSGISYSSSFTYYADSVKGRFTISRDNSKNTLYLQMNSLRAEDTAVYYCARALGGGVDYWGQGTLVTVSS VL: DIELTQPPSVSVAPGQTARISCSGDNLPSKSVYWYQQKPGQAPVLVIYGDNNRPSGIPERFSGSNSGNTATLTISGTQAEDEADYYCQSWTSRPMVVFGGGTKLTVLG
7 | no binding | TP-3G1 Fab (Fab, V domains shown) VH: QVQLQQSGPGLVKPSQTLSLTCAISGDSVSSNSGGWGWIRQSPGRGLEWLGLIYYRSKWYNAYAVSVKSRITINPDTSKNQFSLQLNSVTPEDTAVYYCARYLGSNFYVYSDVWGQGTLVTVSS VL: DIQMTQSPSSLSASVGDRVTITCRASQGISSYLHWYQQKPGKAPKLLIYGASTLQSGVPSRFSGSGSGTDFTLTISSLQPEDFATYYCQQQNGYPFTFGQGTKVEIKR
8 | no binding | TP-3F1 Fab (Fab, V domains shown) VH: QVQLVQSGAEVKKPGESLKISCKGSGYSFTDYWIGWVRQMPGKGLEWMGIIQPSDSDTNYSPSFQGQVTISADKSISTAYLQWSSLKASDTAMYYCARFMWWGKYDSGFDVWGQGTLVTVSS VL: DIELTQPPSVSVAPGQTARISCSGDNIGSYFASWYQQKPGQAPVLVIYDDSNRPSGIPERFSGSNSGNTATLTISGTQAEDEADYYCEGSNVFGGGTKLTVLG
9 | no binding | TP-3E1 Fab (Fab, V domains shown) VH: QVQLVESGGGLVQPGGSLRLSCAASGFTFSNYAMTWVRQAPGKGLEWVSVISSVGSNTYYADSVKGRFTISRDNSKNTLYLQMNSLRAEDTAVYYCARPTKAGRTWWWGPYMDVWGQGTLVTVSS VL: DIELTQPPSVSVAPGQTARISCSGDNIGSYYAYWYQQKPGQAPVLVIYDDSNRPSGIPERFSGSNSGNTATLTISGTQAEDEADYYCQSYDSTGLLVFGGGTKLTVLG
10 | no binding | TP-4A7 Fab (Fab, V domains shown) VH: QVQLVESGGGLVQPGGSLRLSCAASGFTFRNYAMNWVRQAPGKGLEWVSVISGSSSYTYYADSVKGRFTISRDNSKNTLYLQMNSLRAEDTAVYYCARADLPYMVFDYWGQGTLVTVSS VL: DIELTQPPSVSVAPGQTARISCSGDALGSKFAHWYQQKPGQAPVLVIYDDSERPSGIPERFSGSNSGNTATLTISGTQAEDEADYYCQAYDSGLLYVFGGGTKLTVLG
